In US4123552A, “Compositions for preserving crops and animal feedstuffs” (Chevron Research Company, priority 1975, dated 1978):

Experiment: Visual corrosion damage to the can holding treated corn
Conditions: rating 1-10 basis, 10 heavy corrosion

| Compound | Corrosion 42 Days (2 Oz/Bu) | Corrosion 42 Days (3 Oz/Bu) | Corrosion 83 Days (3 Oz/Bu) | Corrosion 42 Days (4 Oz/Bu) | Corrosion 83 Days (4 Oz/Bu) | Corrosion 42 Days (5 Oz/Bu) | Corrosion 83 Days (5 Oz/Bu) | Corrosion 42 Days (6 Oz/Bu) | Corrosion 83 Days (6 Oz/Bu) |
| --- | --- | --- | --- | --- | --- | --- | --- | --- | --- |
| CCC(=O)OCOCOC(=O)CC [Oxybismethylene Propionate, Oxybismethylene Bispropionate] | 0 | 0 | 0.5 | 0.5 | 0.5 | 1 | 1 |  |  |
| CCC(=O)O [Propionic acid, reference compound] | 0 | 0 |  | 0 | 1 |  |  | 2 | 3 |
